Results are given in words; binding and its absence hold for the method and conditions named. In cells and extracts the contact can be indirect. Here binding means that the protein was enriched with, or labelled near, the bait; the list need not be complete. One block for each binder: values may come before it.
Biological target: BAG3 (BCL-2-associated athanogene 3) (human (endogenous in HEK293T)) (UniProt O95817)
Experiment: affinity purification with mass spectrometry; endogenous BAG3 immunoprecipitated with anti-BAG3 antibody and Protein A/G magnetic beads from HEK293T lysate; cells treated with DMSO (basal) or 10 µM MG132 for 6 h; IgG IP (MG132_IgG) as control; label-free quantification, three biological replicates

Protein sequences, listed by entry. Tags and fused reporters are not part of them.
UniProt O95817: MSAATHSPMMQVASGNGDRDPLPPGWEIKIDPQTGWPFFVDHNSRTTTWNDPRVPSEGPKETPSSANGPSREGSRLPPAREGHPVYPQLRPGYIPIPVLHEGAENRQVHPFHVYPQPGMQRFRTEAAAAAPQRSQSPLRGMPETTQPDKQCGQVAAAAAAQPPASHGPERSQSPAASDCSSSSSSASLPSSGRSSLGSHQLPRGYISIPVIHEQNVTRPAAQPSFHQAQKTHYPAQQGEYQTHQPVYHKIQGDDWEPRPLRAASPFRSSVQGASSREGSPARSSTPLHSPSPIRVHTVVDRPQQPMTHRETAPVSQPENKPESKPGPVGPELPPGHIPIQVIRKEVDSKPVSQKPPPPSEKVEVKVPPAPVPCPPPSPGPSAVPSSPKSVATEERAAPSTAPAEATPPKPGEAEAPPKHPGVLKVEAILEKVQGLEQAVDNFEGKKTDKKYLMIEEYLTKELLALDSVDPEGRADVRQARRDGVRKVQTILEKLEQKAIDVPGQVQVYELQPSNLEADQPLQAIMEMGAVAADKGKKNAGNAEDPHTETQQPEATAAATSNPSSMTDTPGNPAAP

binding: binds
B1: GART (protein, UniProt P22102 1-1010)
chain: MAARVLIIGSGGREHTLAWKLAQSHHVKQVLVAPGNAGTACSEKISNTAISISDHTALAQFCKEKKIEFVVVGPEAPLAAGIVGNLRSAGVQCFGPTAEAAQLESSKRFAKEFMDRHGIPTAQWKAFTKPEEACSFILSADFPALVVKASGLAAGKGVIVAKSKEEACKAVQEIMQEKAFGAAGETIVIEELLDGEEVSCLCFTDGKTVAPMPPAQDHKRLLEGDGGPNTGGMGAYCPAPQVSNDLLLKIKDTVLQRTVDGMQQEGTPYTGILYAGIMLTKNGPKVLEFNCRFGDPECQVILPLLKSDLYEVIQSTLDGLLCTSLPVWLENHTALTVVMASKGYPGDYTKGVEITGFPEAQALGLEVFHAGTALKNGKVVTHGGRVLAVTAIRENLISALEEAKKGLAAIKFEGAIYRKDVGFRAIAFLQQPRSLTYKESGVDIAAGNMLVKKIQPLAKATSRSGCKVDLGGFAGLFDLKAAGFKDPLLASGTDGVGTKLKIAQLCNKHDTIGQDLVAMCVNDILAQGAEPLFFLDYFSCGKLDLSVTEAVVAGIAKACGKAGCALLGGETAEMPDMYPPGEYDLAGFAVGAMERDQKLPHLERITEGDVVVGIASSGLHSNGFSLVRKIVAKSSLQYSSPAPDGCGDQTLGDLLLTPTRIYSHSLLPVLRSGHVKAFAHITGGGLLENIPRVLPEKLGVDLDAQTWRIPRVFSWLQQEGHLSEEEMARTFNCGVGAVLVVSKEQTEQILRDIQQHKEEAWVIGSVVARAEGSPRVKVKNLIESMQINGSVLKNGSLTNHFSFEKKKARVAVLISGTGSNLQALIDSTREPNSSAQIDIVISNKAAVAGLDKAERAGIPTRVINHKLYKNRVEFDSAIDLVLEEFSIDIVCLAGFMRILSGPFVQKWNGKMLNIHPSLLPSFKGSNAHEQALETGVTVTGCTVHFVAEDVDAGQIILQEAVPVKRGDTVATLSERVKLAEHKIFPAALQLVASGTVQLGENGKICWVKEE

binding: binds
B2: intron-binding spliceosomal protein AQR (protein, UniProt O60306 1-1485)
chain: MAAPAQPKKIVAPTVSQINAEFVTQLACKYWAPHIKKKSPFDIKVIEDIYEKEIVKSRFAIRKIMLLEFSQYLENYLWMNYSPEVSSKAYLMSICCMVNEKFRENVPAWEIFKKKPDHFPFFFKHILKAALAETDGEFSLHEQTVLLLFLDHCFNSLEVDLIRSQVQQLISLPMWMGLQLARLELELKKTPKLRKFWNLIKKNDEKMDPEAREQAYQERRFLSQLIQKFISVLKSVPLSEPVTMDKVHYCERFIELMIDLEALLPTRRWFNTILDDSHLLVHCYLSNLVRREEDGHLFSQLLDMLKFYTGFEINDQTGNALTENEMTTIHYDRITSLQRAAFAHFPELYDFALSNVAEVDTRESLVKFFGPLSSNTLHQVASYLCLLPTLPKNEDTTFDKEFLLELLVSRHERRISQIQQLNQMPLYPTEKIIWDENIVPTEYYSGEGCLALPKLNLQFLTLHDYLLRNFNLFRLESTYEIRQDIEDSVSRMKPWQSEYGGVVFGGWARMAQPIVAFTVVEVAKPNIGENWPTRVRADVTINLNVRDHIKDEWEGLRKHDVCFLITVRPTKPYGTKFDRRRPFIEQVGLVYVRGCEIQGMLDDKGRVIEDGPEPRPNLRGESRTFRVFLDPNQYQQDMTNTIQNGAEDVYETFNIIMRRKPKENNFKAVLETIRNLMNTDCVVPDWLHDIILGYGDPSSAHYSKMPNQIATLDFNDTFLSIEHLKASFPGHNVKVTVEDPALQIPPFRITFPVRSGKGKKRKDADVEDEDTEEAKTLIVEPHVIPNRGPYPYNQPKRNTIQFTHTQIEAIRAGMQPGLTMVVGPPGTGKTDVAVQIISNIYHNFPEQRTLIVTHSNQALNQLFEKIMALDIDERHLLRLGHGEEELETEKDFSRYGRVNYVLARRIELLEEVKRLQKSLGVPGDASYTCETAGYFFLYQVMSRWEEYISKVKNKGSTLPDVTEVSTFFPFHEYFANAPQPIFKGRSYEEDMEIAEGCFRHIKKIFTQLEEFRASELLRSGLDRSKYLLVKEAKIIAMTCTHAALKRHDLVKLGFKYDNILMEEAAQILEIETFIPLLLQNPQDGFSRLKRWIMIGDHHQLPPVIKNMAFQKYSNMEQSLFTRFVRVGVPTVDLDAQGRARASLCNLYNWRYKNLGNLPHVQLLPEFSTANAGLLYDFQLINVEDFQGVGESEPNPYFYQNLGEAEYVVALFMYMCLLGYPADKISILTTYNGQKHLIRDIINRRCGNNPLIGRPNKVTTVDRFQGQQNDYILLSLVRTRAVGHLRDVRRLVVAMSRARLGLYIFARVSLFQNCFELTPAFSQLTARPLHLHIIPTEPFPTTRKNGERPSHEVQIIKNMPQMANFVYNMYMHLIQTTHHYHQTLLQLPPAMVEEGEEVQNQETELETEEEAMTVQADIIPSPTDTSCRQETPAFQTDTTPSETGATSTPEAIPALSETTPTVVGAVSAPAEANTPQDATSAPEETK

Reference: publication PMC7694386
